# Out of some 410,000 compounds screened, about 18,000 (4.4%) were called active. Inconclusive means that the source gave no clear call. Such entries were picked first, then a sample of the others. Cut-off read from the data, not from the text of the source: active = activity change below about -60%; inconclusive = no clear call, values can overlap the other calls; inactive = above about -39%. Some structures have more than one record in an assay (separate samples or runs), and their calls can disagree.
# Experiment: qHTS Assay for inhibitors of the human cytomegalovirus (HCMV)
# Details: HFF cells, HCMV-luciferase reporter, 72 h; at 57.5 µM; active compounds read low
# How it was run: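 Compounds were evaluated in HFFs infected with an HCMV luciferase reporter virus (MOI 1 PFU/cell). Luciferase in lysates collected 72 h post infection served as the replication measure.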
# % is set by controls: 0 for no effect and ±100 for the full control effect.
row,SMILES,"activity change, negative = inhibition"
1,CSc1nc(N)c(NC(=O)c2ccc(Br)o2)c(=O)[nH]1,inconclusive: -40.2%
2,CCOc1ccc(N(Cc2nnc3n2CCCCC3)C(=O)Nc2cccc(C)c2)cc1,inconclusive: -44.3%
3,Cc1ccc(Cl)cc1N1CCN(C(=O)C2CCN(c3nnc(-n4cccc4)s3)CC2)CC1,inconclusive: -42.1%
4,CCOC(=O)CC(=O)CSc1nc2ccccc2c(=O)n1-c1ccc(C(=O)NCCOC)cc1,inconclusive: -43.6%
5,Cc1ccc(/C=C2\SC(=S)N(CCCC(=O)N3CCOCC3)C2=O)cc1,inconclusive: -56.3%
6,CC(=O)N1C(c2ccccc2)CC(=O)OC1c1ccc2c(c1)OCO2 (stereo not given),inactive: 29%
7,COC(=O)c1ccc(C(=O)OC)c(NC(=O)N2CC3CCCN3c3ccccc32)c1 (stereo not given),inactive: 26.1%
8,O=C(NCc1ccc(F)c(F)c1)c1cccc2c(-c3cccnc3)coc12,inconclusive: -55.8%
9,COc1ccc(Nc2nnc(SCC(=O)/C=C3/N(C)c4ccccc4C3(C)C)s2)cc1,active: -74.1%
10,O=C(NCc1ccco1)c1cnn2c(C(F)F)cc(-c3ccccc3)nc12,inconclusive: -53.6%
11,COCCC1CCCCN1Cc1cn(-c2ccccc2)nc1-c1ccc2c(c1)OCO2 (stereo not given),inconclusive: -51.5%
12,O=C(COc1ccccc1)c1cn(Cc2ccccc2)c2ccccc12,active: -62.5%
13,CCOC(=O)c1c(C)[nH]c(C(=O)OCC(=O)Nc2sccc2C(N)=O)c1C,active: -68.3%
14,CCCCC(=O)NC(=S)Nc1ccc(NC(=O)C(C)C)c(OC)c1,inactive: -17.2%
15,CCOC(=O)Cc1csc(N/N=C/c2ccc(C(F)(F)F)cc2)n1,inconclusive: -53.6%
16,Cc1cccc(C)c1NC(=O)CN(C)CC(=O)c1c(N)n(Cc2ccccc2)c(=O)n(C)c1=O,inconclusive: -59.8%
17,CCN1CCN(c2nnc(-n3cccc3C(=O)Nc3cccc(OC)c3)s2)CC1,inconclusive: 0%
18,CCOC(=O)c1cccc(NC(=O)c2cc3sccc3n2C)c1,inactive: 109%
19,NC(=S)N/N=C/c1ccc2cccc(OCc3ccccc3)c2n1,active: -68.1%
20,CCCCNC(=O)c1cc2c(=O)n3cccc(C)c3nc2n(CCN2CCOCC2)c1=N,inactive: -30.2%
21,CCOC(=O)c1ccc(N=c2ssnc2Cl)cc1,inconclusive: -42.8%
22,Cc1ccc(-n2nc(CN3CCOCC3)c(-c3ccccc3)c2N)c(C)c1,inconclusive: -58.3%

row,SMILES,"activity change, negative = inhibition"
1,CC1=C(C(=O)N(C)C)C(c2ccccc2OC(F)F)NC(=O)N1 (stereo not given),inconclusive: -50.3%
2,Cc1cccc(OCCSc2nc3ccc(NC(=O)c4cccs4)cc3s2)c1,inconclusive: -40.5%
3,NNC(=O)c1ccc2[nH]c3c(c2c1)CCCC3,inconclusive: -50%
4,O=C(Nc1ccccc1-c1nnn(CC(=O)N2CCCc3ccccc32)n1)c1ccc(Cl)cc1,inconclusive: -49.1%
5,O=C1/C(=C/c2cccnc2)CCC/C1=C\c1cccnc1,active: -101%
6,CN(C)S(=O)(=O)N1CCC(Oc2cccc(C(=O)NC3CCCCC3)c2)CC1,inconclusive: -57.4%
7,S=c1[nH]nc(-c2ccc(Cl)cc2)n1Cc1ccccc1,inconclusive: -55.2%
8,O=C(Nc1ccc(F)cc1)c1cc2c(s1)CCCC2,inconclusive: -45.7%
9,Cc1cc(C)c(C)c(S(=O)(=O)N2CCCCC2C(=O)O)c1C (stereo not given),inconclusive: -44.2%
10,CCCN(Cc1cc2ccc(C)cc2[nH]c1=O)S(=O)(=O)c1ccccc1,inconclusive: -45.2%
11,Cc1ccc(NC(=O)c2cc(S(=O)(=O)N3CCCc4ccccc43)ccc2F)cc1F,inconclusive: -47.9%
12,Oc1ccc(/C=N/Nc2nccnc2Cl)cc1,inactive: 53.9%
13,COc1ccc(S(=O)(=O)NCC2CCCN(C(=O)c3cccnc3)C2)cc1 (stereo not given),active: -60.1%
14,C[C@H](c1ccccc1)N1C[C@@H](COCc2ccccc2)Oc2cccc(Oc3ccc(F)cc3)c2S1(=O)=O,inconclusive: -40.7%
15,NC(=O)c1c(NC(=O)C2c3ccccc3Oc3ccccc32)sc2c1CCCCC2,inactive: -32.3%
16,O=C(Nc1ccc2oc(-c3ccncc3)nc2c1)c1ccccc1,inconclusive: -43.2%
17,CC(C)(C)n1nc(-c2ccc(Cl)cc2)c2c(N)ncnc21,inconclusive: -44.5%
18,CN(C)c1ccc(N=Nc2ccccc2C(=O)OCC(=O)NC2CCCC2)cc1,inconclusive: -52.1%
19,COc1ccc(Cl)cc1Cn1c(C)c(C(=O)NCc2ccccc2C(F)(F)F)sc1=O,inconclusive: -50.4%
20,CCOC(=O)N1CCC(NC(=O)c2cc(S(=O)(=O)N3CCCC3)cn2C)CC1,inactive: -8.38%
21,CCOc1ccc(C(O)(c2ccccc2)C(CN2CCCC2)c2ccccc2)cc1 (stereo not given),inconclusive: -51%
22,C/C(=N\N1CCN(Cc2ccccc2)CC1)c1ccco1,inactive: -38.2%

row,SMILES,"activity change, negative = inhibition"
1,CCn1cc(C(=O)NCCc2ccc(Cl)cc2)c(=O)c2cc(S(=O)(=O)N3CCc4ccccc4C3)ccc21,inactive: 18.2%
2,COc1ccc(-c2coc3cc(OC4OC(CO)C(O)C(O)C4O)cc(O)c3c2=O)cc1 (stereo not given),inactive: 62.8%
3,FC(F)(F)c1cccc(-n2cc(-c3ccccc3)[nH]c2=S)c1,inactive: -15.6%
4,O=C(NCc1ccccn1)C(=O)NN=C1CCCCCCCCCCC1,inconclusive: -48.8%
5,CCSc1nnc(NC(=O)c2cccc(S(=O)(=O)N(C)c3ccc(C)cc3)c2)s1,inconclusive: -50.4%
6,CCCOC(=O)c1ccc(NC(=O)CC(C)(C)C)cc1,inconclusive: -42%
7,CC(C)C(C)NC(=O)COc1ccc([N+](=O)[O-])cc1Cl (stereo not given),inconclusive: -49.7%
8,CCCCCCSc1ccc([C@@H]2[C@@H]3C(=O)N(CC)C(=O)[C@@H]3[C@]3(C(=O)OC)CCCCN23)cc1,inactive: 20.8%
9,COC(=O)C[C@H]1C=C[C@@H](NC(=O)C2CC2)[C@@H](CO)O1,inconclusive: -56.9%
10,Nc1nc(Cl)cc(N2CCC(c3cc(-c4ccc(Cl)cc4)n[nH]3)CC2)n1,active: -104%
11,COc1ccc(Cn2ccc3nc(C)c(C(=O)Nc4ccc(F)cc4)cc3c2=O)cc1,inconclusive: -40.1%
12,CC(C)CCN(C(=O)c1ccncc1)c1c(N)n(Cc2ccccc2)c(=O)[nH]c1=O,inactive: -19.4%
13,COc1cccc(CN2C(=O)N(c3ccc(C)cc3)C(=O)C2CC(=O)Nc2cc(OC)cc(OC)c2)c1 (stereo not given),inconclusive: -44.3%
14,COc1ccc(-c2c3c(=O)n(C)c(=O)n(C)c3cn2-c2cccc(N)c2)cc1,inactive: -1.81%
15,O=C(CCS(=O)(=O)c1ccc(Br)cc1)N1CCN(c2ccccc2)CC1,inconclusive: -40.8%
16,O=C(Nc1ccc(F)cc1)N1CCN(c2ccc3nnc(-c4ccc(F)cc4)n3n2)CC1,active: -69.5%
17,CCOc1ccc(Nc2c(S(=O)(=O)c3ccc(Cl)cc3)cnc3ccc(OC)cc23)cc1,inconclusive: -40.6%
18,NC(=O)NC(=O)CSc1nc2cc([N+](=O)[O-])ccc2n1-c1cccc(C(F)(F)F)c1,inconclusive: -43.8%
19,COc1ccccc1NC(=S)N(Cc1cccnc1)Cc1ccco1,inactive: 0.743%
20,CCc1ccc(N(C(=O)c2ccco2)C(C(=O)NC2CCCC2)c2cccnc2)cc1 (stereo not given),inconclusive: -43.1%
21,O=C(CN(C1CCCCC1)S(=O)(=O)c1ccccc1)N1CCCC1,inconclusive: -51.3%
22,O=C(c1ccccc1)C1CCN(C(=O)C2CCC(=O)N(Cc3ccccc3F)C2)CC1 (stereo not given),inconclusive: -45.1%

# 2 compounds drawn at random from the list so far:
row,SMILES,"activity change, negative = inhibition"
6,CCCOC(=O)c1ccc(NC(=O)CC(C)(C)C)cc1,inconclusive: -42%
3,FC(F)(F)c1cccc(-n2cc(-c3ccccc3)[nH]c2=S)c1,inactive: -15.6%

# Next structures

row,SMILES,"activity change, negative = inhibition"
1,O=C(O)c1ccccc1Nc1ccccc1,inactive: -4.63%
2,Cc1c(Cl)cccc1NC(=S)NCCc1ccc(S(N)(=O)=O)cc1,active: -79.5%
3,O=c1c(-c2ccccc2)coc2c(CN3CCCCC3)c(O)ccc12,inactive: -24.9%
4,CCN(CC)C(=O)[C@H]1C[C@H](CC(=O)NCCCN(C)C)C(=O)N2CCc3c([nH]c4cc(CCC(=O)N(C)C)ccc34)[C@]12C,inactive: 28.3%
5,Cc1sc2ncnc(N/N=C/c3cccc(O)c3)c2c1C,inconclusive: -41.1%
6,Cc1ccc2c(cnn2C(=O)CCC(=O)NCc2ccccc2Cl)c1,inactive: 28.3%
7,O=C(CNC(=O)c1ccco1)NCC(=O)OCc1ccc(F)cc1,inconclusive: -44.8%
8,CCC1CCCCN1C(=O)COC(=O)c1cc(Br)ccc1Cl (stereo not given),inconclusive: -44.7%
9,O=C(NCCCSc1ccccc1)c1cc(Br)ccc1O,active: -79%
10,CCn1c(SCC(=O)c2[nH]c(C)c(C(C)=O)c2C)nnc1-c1ccncc1,inactive: 5.32%
11,CC(C)(C)C(=O)Nc1c(Br)c(C2CC2)nn1-c1ccccc1,inconclusive: -45.3%
12,O=C(CN(C1CCCCC1)S(=O)(=O)c1ccc(Cl)cc1)N1CCOCC1,inconclusive: -40.1%
13,Cc1ccc(C)c(N2N=C(C(=O)Nc3ccccc3N3CCOCC3)CCC2=O)c1,inconclusive: 0%
14,CCN(C(=O)c1cnc(N2CCN(c3ncccn3)CC2)c2ccccc12)c1cccc(Cl)c1,active: -85.3%
15,CCC(C)(C)C(=O)Nc1ncc(S(=O)(=O)c2ccc([N+](=O)[O-])cc2)s1,inactive: -10.6%
16,Cc1cc(SCC(=O)c2cccs2)n2nc(C)c(-c3ccc(Cl)cc3)c2n1,inconclusive: -41.1%
17,CC(C)c1ccc2nc(NC(=O)C3CC3)sc2c1,inconclusive: -43.6%
18,O=C(NCCn1cc(SCc2cccc(F)c2)c2ccccc21)c1cccc(C(F)(F)F)c1,active: -92.2%
19,Cc1nn2c(NCCCn3ccnc3)cc(C(C)C)nc2c1-c1ccccc1,inconclusive: -55.5%

# 3 entries out of the list, ordered by length of the SMILES, ascending:
row,SMILES,"activity change, negative = inhibition"
16,Cc1cc(SCC(=O)c2cccs2)n2nc(C)c(-c3ccc(Cl)cc3)c2n1,inconclusive: -41.1%
20,CCOC(=O)N1CCC(NC(=O)c2cc(S(=O)(=O)N3CCCC3)cn2C)CC1,inactive: -8.38%
13,COc1cccc(CN2C(=O)N(c3ccc(C)cc3)C(=O)C2CC(=O)Nc2cc(OC)cc(OC)c2)c1 (stereo not given),inconclusive: -44.3%

# Reference: PubChem BioAssay AID1259415 (National Center for Advancing Translational Sciences (NCATS), 2018)
